Laboratory results as given in the DeepSol protein solubility set.

Experiment: soluble on expression in E. coli; label from the status in PepcDB or PDB records

| Sequence | soluble on expression in E. coli |
| --- | --- |
| AIATESRISFEDVAVDFSWDQWQLLSPTQKSLYRDVMLENCSSLVFLGNQTTVWLLGFEHLRKSYTG | soluble |
| ASARAPPGLARGCLGRRGPQVQQLDMENQRSSPLSFPSVPQEETLRQAPAGLPRETLFQSRVLPPKEIPSLSPTIPRQGSLPQTSSAPKQETSGRMPHVLQKGPSLLCSAASEQETSLQGPLASQEGTQYPPPAAAEQEVSLLSHSPHHQEAPVHSPEAPEKDPLTLSPTVPETDMDPLLQSPVSQKDTPFQISSAVQKEQPLPTAEITRLAVWAAVQAVERKLEAQAMRLLTLEGRTGTNEKKIADCEKTAVEFANHLESKWVVLGTLLQEYGLLQRRLENMENLLKNRNFWILRLPPGSNGEVPKVPVTFDDVAVHFSEQEWGNLSEWQKELYKNVMRGNYESLVSMDYAISKPDLMSQMERGERPTMQEQEDSEEGETPTDPSAAHDGIVIKIEVQTNDEGSESLETPEPLMGQVEEHGFQDSELGDPCGEQPDLDMQEPENTLEESTEGSSEFSELKQMLVQQRNCTGECWAGTAGEGLP | soluble |
| GPLGSMDTETEFDRILLFEQIRQDAENTYKSNPLDADNLTRWGGVLLELSQFHSISDAKQMIQEAITKFEEALLIDPKKDEAVWCIGNAYTSFAFLTPDETEAKHNFDLATQFFQQAVDEQPDNTHYLKSLEMTAKAPQLHAEAYKQGLGGSHHHHHH | soluble |
| GSHMRIVVKTLMGRTIILEVEPSDTIENVKAKIQDKEGIPPDQQRLIFAGKQLEDGRTLSDYNIHNHSALYLLLKLRGGGGGGSG | soluble |
| MAHHHHHHMAGRSYVSPKDERAFVAILAKDPECSQCFECGAPSPQWCDVMHGTFICLNCSGQHRGLGVHLSFVRSSTMDGWVDWKPEKLRQMELGGNRRARLYFEEHKVPNTPLKARYESLPALRYADMLESEALGKPFSEASWQPPAWYTRLQAAASLAGPFPTSSYPQTDLNRFAGVGSNGQPHVMSDNSEGDREWYSALYSGWSAVSQKTAELAQHATKAVQGADVEGMRSSLAQTWAGVSATVSAYAADLQQRIAEGGGRDKDDGLDRMLQNAREAQTESSVDNRAAGQTRYGHIEGSRGNGPGSRIAVQARPVGAASPESSTVYQGRVLRQSASESSPTESVTASASSGWDSPSRASPSAALPQTQPTSSRPVNPLGGDAGGGGASPPASQSTKKDEWSWDNENF | not soluble |
| MAVAPARARSDYDYLIKLLLIGDSGVGKSCLLLRFSDDTFTTSFITTIGIDFKIRTVELDGKRIKLQIWDTAGQERFRTITTAYYRGAMGILLVYDVTDESSFNNIRNWMKNIEQHASDSVNKILVGNKADMDESKRAVPTSKGQALADEYGIKFFETSAKTNQNVEQVFLSIAKDIKQRLTESDTKAEPQGIKITKQDANKASSSSTNEKSACCSYV | soluble |
| MCGGAVISDYIAPEKIARSSGKSSWRSNGVFDCSIYDFDGNFDELESDEPFVFSSTHKHHASGSASDGKKKQSSRYKGIRRRPWGRWAAEIRDPIKGVRVWLGTFNTAEEAARAYDLEAKRIRGAKAKLNFPNESSGKRKAKAKTVQQVEENHEADLDVAVVSSAPSSSCLDFLWEENNPDTLLIDTQWLEDIIMGDANKKHEPNDSEEANNVDASLLSEELLAFENQTEYFSQMPFTEGNCDSSTSLSSLFDGGNDMGLWS | not soluble |
| MDPAASSCMRSLQPPAPVWGCLRNPHSEGNGASGLPHYPPTPFSFHQKPDFLATATAAYPDFSASCLAATPHSLPQEEHIFTEQHPAFPQSPNWHFPVSDARRRPNSGPAGGSKEMGTSSLGLVDTTGGPGDDYGVLGSTANETEKKSSRRRKESSDNQENRGKPEGSSKARKERTAFTKEQLRELEAEFAHHNYLTRLRRYEIAVNLDLSERQVKVWFQNRRMKWKRVKGGQPISPNGQDPEDGDSTASPSSE | soluble |
| MESIYLQKHLGACLTQGLAEVARVRPVDPIEYLALWIYKYKENVTMEQLRQKEMAKLERERELALMEQEMMERLKAEELLLQQQQLALQLELEMQEKERQRIQELQRAQEQLGKEMRMNMENLVRNEDILHSEEATLDSGKTLAEISDRYGAPNLSRVEELDEPMFSDIALNIDQDL | not soluble |
| MFKFNEDEENLKCSFCGKDQDQVKKLVAGSGVYICNECIELCSEIVEEELAQNTSEAMTELPTPKEIMDHLNEYVIGQEKAKKSLAVAVYNHYKRIQQLGPKEDDVELQKSNIALIGPTGSGKTLLAQTLAKTLNVPFAIADATSLTEAGYVGDDVENILLRLIQAADFDIDKAEKGIIYVDEIDKIARKSENTSITRDVSGEGVQQALLKILEGTTASVPPQGGRKHPNQEMIQIDTTNILFILGGAFDGIEEVIKRRLGEKVIGFSSNEADKYDEQALLAQIRPEDLQAYGLIPEFIGRVPIVANLETLDVTALKNILTQPKNALVKQYTKMLELDDVDLEFTEEALSAISEKAIERKTGARGLRSIIEESLIDIMFDVPSNENVTKVVITAQTINEETEPELYDAEGNLINNSKTSA | not soluble |
| MGDAEAGKKIFVQKCAQCHTVEKGGKHKTGPNLWGLFGRKTGQAPGFSYTDANKNKGVIWSEETLMEYLENPKKYIPGTKMIFAGIKKKSEREDLIKYLKQATSS | soluble |
| MGHHHHHHSHMNRHFSKEDIYAANRHMKKCSSSLAIREMQIKTTMRYHLTPVRMVIIRKSGNDRCWRGCGEIGTLLHCWWDCKLVQPLWKTVWRFLRDLQLEIPFDPAIPLLGIYPKDYKSCCYKDTCTRMFIAALFTIAKTWNQPKYPTTIG | not soluble |
| MGHHHHHHSHMQLQEEKVSEDDMDQDFLHLFKIVAGEGKEIGVYELQRLLNRMAIKFKSFKTKGFGLDACRCMINLMDKDGSGKLGLLEFKILWKKLKKWMDIFRECDQDHSGTLNSYEMRLVIEKAGIKLNNKVMQVLVARYADDDLIIDFDSFISCFLRLKTMFTFFLTMDPKNTGHICLSLEQWLQMTMWG | not soluble |
| MGQGSGDDGVPPAPFSSAAAAAHSPPHSPLSVGVSSASSATSSSSTPPSSTSPAGVSASGARNVETDWKQSGDENLAELCIFHVPDKSVSLPNPKRAECTLPMNLILKSSSKNRKKSSIWSSDHIPRGVRFGPLVGEIRLVDVDTALVCPAEASMAGGGPAQEDVPFDEAPEEWKIYSPSGGRLNKTICVKDDARSNWMKYVAAAEEEDFQNLVAAQIGNDIYFYTVKKIEANTELSFWFSRDYARKLNYSTRPYVRVRRPATQLIPSAPPASASTAIASLAETIVAIDYSVKKLIESPIDTLSTDASSASDEEMIDVEEQESCTRPVAEVTRPNVIQNPVVRPVATKVNNFPGIPVRLGNFYASPLVDFKEFMRKSLQLKLVDTSMFVSPVAQTTAAITATGGRSGQPIDVQPVLAATAGAHFGNYAAIYGSQDFQHELSKPLYTSASPAFGGGGGMGGGFGMGGSAHTSSFHQLPFVNHSSSSHNDSSFNGVPNYVQQQENGKTRYACKDCNKTFGQLSNLKVHVRTHTGERPFKCEICTKEFTQLAHLQKHHLVHTGERPHRCDICDKRFSSTSNLKTHLRLHNGQKPYTCDVCDAKFTQYVHLRLHKRLHANERPYSCGTCGKKYISPSGLRTHWKTTTCKEEDMKDSMRDDLMDIKGEIDEGSMSGSGYGNLGIFENTLNSELKRPLMPIETIYSKYNLPNASLLGQGPSGMQEQQAPPPTSQQQQHMMYGNTMGHMGQGSHLQGPPPPPQHFQMDHSGMQNGGGIPHQHQLIQGGPSSGSGQQQHPQHNGIHRLPDLKNPLLPSLGLPHYP | not soluble |
| MGSDKIHHHHHHMPIDITSFDFTACGEEMYRLLAELFPLCRSITGDGVRETLRIIQGQIPLRLVEVPTGTQVFDWTVPREWAIRDAHISDSNGKRIVDFRSNNLHVVGYSVPVDRTISLAELQNHLYSLETMPDAIPYVTSYYQERWGFCLTHRQRSGLPDGEYRVFIDSELKDGHLTYGELIIPGETDREIFLSTYVCHPSMANNELSGPVVATMLARWIMSRPRRFTYRIVFVPETIGSLTYLSRNLDRMKESIVAGFNLTCIGDDRAYSFLPSRSGSTLADRAALNILGHKHPDFIRYSFLDRGSDERQYCSPGVDLPVVSVMRSKYREYPEYHTSLDNLDLVTPAGLQGGFSAVRDCLELLENNRVYRTTCLGEPQLGRRGLFPTVGTRDSHSQVADMLNVLAYADGTNDLIDISNTIQAPVGRLYPIIGKLAAAGLLVEQAADLSSRDVVEAGV | not soluble |
| MGSDKIHHHHHHMRRVVFNQKGGVGKSTIVCNLAAISASEGLRTLVVDLDAQGNSTQYLMGAQAAEATPTAAHFFESSLTYSFKPVDLSEFIHTTPFENLDVMPAHPDLDSLHSKLESRYKIYKLRDALIELESVYDAIYIDTPPALNFYTRSALIAVERCLIPFDCDDFSRRALYTLLDNVKEIQQDHNEALQVEGIVINQFQPRASLPVKLVEELVSEGLPVLASRLSSSVKIRESHQHATPMIHLDPRHKLSQEYLALHTELAG | not soluble |
| MGSDKIHHHHHHMRSDAIKKGHLRAPNRSLLRACGLKDEDFDKPFIGVANSYIDIIPGHYFLNDYAKIIKDEIRKNGCVPFEFNTIGVDDGIAMGHEGMLYSLPSRELIANSIETVMNAHQLDALICIPNCDKITPGMLMGALRVNVPTIFVSGGPMASGVTKKGEKISLSSVFEAVGAYESKKISEEEFKDIECSACPSGGSCSGMFTANSMNTLCEAMGIALEGNGTILALSKEREELLRKAARRICEIALDERFKIRNIITQKAVRNAMVVDMAMGGSSNTVLHMLAISREAGVALDIKDLNFISSKVAHIAKIAPSLNSVYMDDIHKAGGVSAVMAEISSRQGHILELDALTITGESLKERLKNAKIKDENIIRKVDNAYSKVGGLAILFGNLAKQGCVIKTAGIIGERKFKGKAVCFNSQDEAIKGIIKGKVQKGNVCVIRYEGPKGGPGMQEMLSPTSLLMGMGLGADVALITDGRFSGATRGLSVGHISPEAAEGGLIGLLKDGDEIEIDVDAYTIHANVSEEEIAKRKKEFALPQKEVSSRWLRMYQKLVSNASKGAVLDME | not soluble |
| MHHHHHHSSGVDLGTENLYFQSMELAVGIDLGTTYSCVGVFQQGRVEILANDQGNRTTPSYVAFTDTERLVGDAAKSQAALNPHNTVFDAKRLIGRKFADTTVQSDMKHWPFRVVSEGGKPKVRVCYRGEDKTFYPEEISSMVLSKMKETAEAYLGQPVKHAVITVPAYFNDSQRQATKDAGAIAGLNVLRIINEPTAAAIAYGLDRRGAGERNVLIFDLGGGTFDVSVLSIDAGVFEVKATAGDTHLGGEDFDNRLVNHFMEEFRRKHGKDLSGNKRALRRLRTACERAKRTLSSSTQATLEIDSLFEGVDFYTSITRARFEELCSDLFRSTLEPVEKALRDAKLDKAQIHDVVLVGGSTRIPKVQKLLQDFFNGKELNKSINPDEAVAYGAAVQAAVLMGD | soluble |
| MLSSSAKIVKPNGEKQDELESGISQALLQLEMNSDLRVQLWELNITAAKEMEVGGGQKAIIIFVLLPRLKSFQKIQVGLVRELEKKFSMKHVVFIAQRRILPESTRKKTVWKISKSATEAATQRHP | not soluble |
